Data published in paper doi:10.1101/276733.
No constants are given. Whether binding was seen depends on the method and setting. Binding can be weak; no strength is given.

Chains of the proteins cited; added tags and fusions are not shown. Lines headed by an entry give the natural chain unless they say otherwise; changes in a name come on top. Residues count along the entry.
UniProt P22892: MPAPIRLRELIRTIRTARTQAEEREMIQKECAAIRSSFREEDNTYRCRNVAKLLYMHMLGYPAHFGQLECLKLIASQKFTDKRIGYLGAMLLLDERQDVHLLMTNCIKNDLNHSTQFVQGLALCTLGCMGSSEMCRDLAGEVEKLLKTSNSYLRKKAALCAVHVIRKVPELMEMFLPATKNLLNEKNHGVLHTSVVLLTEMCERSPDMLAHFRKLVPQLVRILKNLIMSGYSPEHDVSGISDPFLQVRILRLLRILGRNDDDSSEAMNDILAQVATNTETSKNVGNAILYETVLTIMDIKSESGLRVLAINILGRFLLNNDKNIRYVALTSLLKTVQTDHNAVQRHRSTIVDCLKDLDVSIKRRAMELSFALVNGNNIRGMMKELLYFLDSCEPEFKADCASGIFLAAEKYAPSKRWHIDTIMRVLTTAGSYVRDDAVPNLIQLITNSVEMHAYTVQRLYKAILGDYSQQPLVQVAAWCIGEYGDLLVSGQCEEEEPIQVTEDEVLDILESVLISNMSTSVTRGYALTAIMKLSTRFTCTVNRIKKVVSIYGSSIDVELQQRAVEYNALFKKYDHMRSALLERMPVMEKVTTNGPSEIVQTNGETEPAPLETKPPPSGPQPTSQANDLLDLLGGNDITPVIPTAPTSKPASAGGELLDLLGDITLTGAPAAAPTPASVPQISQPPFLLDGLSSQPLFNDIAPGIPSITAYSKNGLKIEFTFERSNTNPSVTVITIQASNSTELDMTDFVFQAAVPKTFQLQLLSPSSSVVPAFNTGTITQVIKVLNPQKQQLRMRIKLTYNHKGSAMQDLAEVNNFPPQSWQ
UniProt Q10567: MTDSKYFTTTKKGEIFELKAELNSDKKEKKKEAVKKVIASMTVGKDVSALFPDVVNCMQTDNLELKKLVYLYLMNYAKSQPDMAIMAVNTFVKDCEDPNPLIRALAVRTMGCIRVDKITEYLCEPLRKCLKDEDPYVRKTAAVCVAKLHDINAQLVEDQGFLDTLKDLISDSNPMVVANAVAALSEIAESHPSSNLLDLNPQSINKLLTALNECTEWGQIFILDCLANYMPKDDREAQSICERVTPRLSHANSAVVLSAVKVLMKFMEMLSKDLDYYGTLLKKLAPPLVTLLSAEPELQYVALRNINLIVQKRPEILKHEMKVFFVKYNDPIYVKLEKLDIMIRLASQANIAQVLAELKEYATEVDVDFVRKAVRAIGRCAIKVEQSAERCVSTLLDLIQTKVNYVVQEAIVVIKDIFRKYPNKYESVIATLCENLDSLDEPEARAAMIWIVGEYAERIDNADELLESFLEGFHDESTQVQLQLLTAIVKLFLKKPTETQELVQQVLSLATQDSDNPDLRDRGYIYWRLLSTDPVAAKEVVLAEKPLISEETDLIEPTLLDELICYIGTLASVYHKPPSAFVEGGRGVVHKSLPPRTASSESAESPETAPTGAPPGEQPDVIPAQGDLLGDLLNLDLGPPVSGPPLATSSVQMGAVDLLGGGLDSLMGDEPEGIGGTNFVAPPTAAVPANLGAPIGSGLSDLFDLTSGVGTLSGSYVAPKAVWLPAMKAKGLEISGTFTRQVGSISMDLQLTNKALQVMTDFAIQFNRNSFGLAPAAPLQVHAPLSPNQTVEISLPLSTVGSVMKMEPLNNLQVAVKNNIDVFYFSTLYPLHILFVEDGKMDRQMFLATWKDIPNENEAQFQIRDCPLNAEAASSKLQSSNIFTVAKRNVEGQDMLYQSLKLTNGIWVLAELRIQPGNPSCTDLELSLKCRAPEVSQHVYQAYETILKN
UniProt P84077, residues 17-181: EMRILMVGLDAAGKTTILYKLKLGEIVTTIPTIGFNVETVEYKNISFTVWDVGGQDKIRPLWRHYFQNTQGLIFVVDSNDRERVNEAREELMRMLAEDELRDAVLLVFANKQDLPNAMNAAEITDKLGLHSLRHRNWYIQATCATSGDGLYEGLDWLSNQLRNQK

Assays:
[1] = target: AP-1 γ subunit (in the AP-1 core) (UniProt P22892); assay: cryo-EM structure
[2] = target: AP-1 β1 subunit (in the AP-1 core) (UniProt Q10567); assay: cryo-EM structure

binding [1]: binds
binding [2]: binds
Substance: Arf1-GTP (from UniProt P84077 17-181)
